Data taken from paper PMC6128908, “Potent PDZ-Domain PICK1 Inhibitors that Modulate Amyloid Beta-Mediated Synaptic Dysfunction” (Scientific Reports, 2018).
Results are given in words; binding and its absence hold for the method and conditions named. A result given as binding can be weak or reduced; the word gives no strength.

Sequences of proteins named here, by UniProt entry; tags and fusion partners are left off. A change or cut given only in a name is not applied to a line headed by its entry.
UniProt Q9BYB0: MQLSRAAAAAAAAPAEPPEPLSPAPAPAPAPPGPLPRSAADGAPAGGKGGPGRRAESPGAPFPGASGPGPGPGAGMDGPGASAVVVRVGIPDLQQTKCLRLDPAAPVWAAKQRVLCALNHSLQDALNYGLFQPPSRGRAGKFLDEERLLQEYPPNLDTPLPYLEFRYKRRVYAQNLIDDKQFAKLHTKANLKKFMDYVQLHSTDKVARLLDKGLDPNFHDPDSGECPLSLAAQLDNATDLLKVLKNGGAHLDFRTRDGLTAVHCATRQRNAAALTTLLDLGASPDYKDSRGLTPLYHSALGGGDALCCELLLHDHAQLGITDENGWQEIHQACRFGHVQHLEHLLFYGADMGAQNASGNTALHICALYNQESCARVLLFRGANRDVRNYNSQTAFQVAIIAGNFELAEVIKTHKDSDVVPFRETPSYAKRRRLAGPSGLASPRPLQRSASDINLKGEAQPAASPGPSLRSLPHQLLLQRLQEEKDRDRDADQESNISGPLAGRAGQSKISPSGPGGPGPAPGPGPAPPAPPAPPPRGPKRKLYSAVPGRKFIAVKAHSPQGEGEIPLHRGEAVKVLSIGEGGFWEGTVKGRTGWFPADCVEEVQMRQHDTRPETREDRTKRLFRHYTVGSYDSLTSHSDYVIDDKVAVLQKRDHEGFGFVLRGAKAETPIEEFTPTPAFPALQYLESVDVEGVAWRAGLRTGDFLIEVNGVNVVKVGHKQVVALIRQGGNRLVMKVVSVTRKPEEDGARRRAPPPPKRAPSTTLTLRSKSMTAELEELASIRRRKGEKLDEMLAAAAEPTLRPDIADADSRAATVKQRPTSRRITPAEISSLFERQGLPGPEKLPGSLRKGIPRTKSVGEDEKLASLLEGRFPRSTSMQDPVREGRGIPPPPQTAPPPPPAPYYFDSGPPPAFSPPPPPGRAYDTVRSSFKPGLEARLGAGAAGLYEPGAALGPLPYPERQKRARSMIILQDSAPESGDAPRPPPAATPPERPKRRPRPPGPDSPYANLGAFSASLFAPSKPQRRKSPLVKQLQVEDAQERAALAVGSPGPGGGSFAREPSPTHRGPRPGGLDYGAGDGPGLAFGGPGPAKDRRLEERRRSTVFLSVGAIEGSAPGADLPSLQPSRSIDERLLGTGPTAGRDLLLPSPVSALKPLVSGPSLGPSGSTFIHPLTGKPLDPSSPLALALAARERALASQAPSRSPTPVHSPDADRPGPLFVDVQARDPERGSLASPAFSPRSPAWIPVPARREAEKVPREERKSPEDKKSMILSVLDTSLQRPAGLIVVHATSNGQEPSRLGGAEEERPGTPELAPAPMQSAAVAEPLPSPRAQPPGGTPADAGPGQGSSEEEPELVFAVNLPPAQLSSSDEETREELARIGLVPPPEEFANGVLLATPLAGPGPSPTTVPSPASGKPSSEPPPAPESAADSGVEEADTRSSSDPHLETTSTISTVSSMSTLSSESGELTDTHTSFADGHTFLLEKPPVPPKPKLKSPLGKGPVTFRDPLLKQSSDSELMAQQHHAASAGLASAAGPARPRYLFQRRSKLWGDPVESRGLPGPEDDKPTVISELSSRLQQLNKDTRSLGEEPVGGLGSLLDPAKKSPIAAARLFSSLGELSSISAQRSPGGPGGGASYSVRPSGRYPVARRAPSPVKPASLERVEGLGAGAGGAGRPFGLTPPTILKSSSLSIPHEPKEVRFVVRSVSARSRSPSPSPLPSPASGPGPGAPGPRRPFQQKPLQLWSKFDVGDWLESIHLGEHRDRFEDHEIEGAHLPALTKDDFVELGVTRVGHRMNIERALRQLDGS

Target: Human Shank3 PDZ domain (residues 663–757) (human) (UniProt Q9BYB0)
Experiment: fluorescence polarisation; competition FP: FITC-labeled peptides fixed at 5 nM, non-saturating protein concentrations (PICK1 600 nM; PSD95 PDZ 1–2 8 µM; Shank3 8 µM), unlabeled peptides or compound varied; normalised to binding and tracer-only controls; both purified

binding: binds
B1: GKAP peptide (peptide)
peptide: YIPEAQTRL
